The campaign covered roughly 290,000 compounds. About 110 (0.038%) were called active. The inconclusive results got no clear call from the source; some entries with a clear call stand among them for comparison. Calls come from the whole dose curve; as a rule, active = well fitted inhibition curve with a large enough effect in the polarisation, with a control signal flat (not every such curve was filed as active); inconclusive = small, poorly fitted or top-dose-only effect, or effect the other way, or a change in a side signal; inactive = no such curve, though single readings can be large or run the other way; the % refers to the polarisation. Where the call is inconclusive, the potency comes from a doubtful curve fit. A note “side channel” means that the fit belongs to a control or component signal, not to the main read-out.
Each compound was assayed against Histone-lysine N-methyltransferase 2A (Homo sapiens) (UniProt Q03164) (assay: qHTS Fluorescence Polarization Assay for Inhibitors of MLL CXXC domain - DNA interaction). Conditions: MLL-CXXC / FITC-HOXA9 DNA fluorescence polarization; activity change, negative = inhibition: at 115 µM (top of the series).
Outline: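 Fluorescence polarization: 7 uM MLL-CXXC (stock) preincubated 5 min with compounds, then 50 nM fluorescein-HOX-A9 DNA (stock) added; 30 min ambient. Buffer 50 mM Tris-HCl pH 7.5, 50 mM NaCl, 1 mM DTT, 0.05% BSA.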
Potency is the fitted concentration of half-maximal effect.

Protein sequences, listed by entry. Tags and fused reporters are not part of them.
UniProt Q03164, whole entry, looked up: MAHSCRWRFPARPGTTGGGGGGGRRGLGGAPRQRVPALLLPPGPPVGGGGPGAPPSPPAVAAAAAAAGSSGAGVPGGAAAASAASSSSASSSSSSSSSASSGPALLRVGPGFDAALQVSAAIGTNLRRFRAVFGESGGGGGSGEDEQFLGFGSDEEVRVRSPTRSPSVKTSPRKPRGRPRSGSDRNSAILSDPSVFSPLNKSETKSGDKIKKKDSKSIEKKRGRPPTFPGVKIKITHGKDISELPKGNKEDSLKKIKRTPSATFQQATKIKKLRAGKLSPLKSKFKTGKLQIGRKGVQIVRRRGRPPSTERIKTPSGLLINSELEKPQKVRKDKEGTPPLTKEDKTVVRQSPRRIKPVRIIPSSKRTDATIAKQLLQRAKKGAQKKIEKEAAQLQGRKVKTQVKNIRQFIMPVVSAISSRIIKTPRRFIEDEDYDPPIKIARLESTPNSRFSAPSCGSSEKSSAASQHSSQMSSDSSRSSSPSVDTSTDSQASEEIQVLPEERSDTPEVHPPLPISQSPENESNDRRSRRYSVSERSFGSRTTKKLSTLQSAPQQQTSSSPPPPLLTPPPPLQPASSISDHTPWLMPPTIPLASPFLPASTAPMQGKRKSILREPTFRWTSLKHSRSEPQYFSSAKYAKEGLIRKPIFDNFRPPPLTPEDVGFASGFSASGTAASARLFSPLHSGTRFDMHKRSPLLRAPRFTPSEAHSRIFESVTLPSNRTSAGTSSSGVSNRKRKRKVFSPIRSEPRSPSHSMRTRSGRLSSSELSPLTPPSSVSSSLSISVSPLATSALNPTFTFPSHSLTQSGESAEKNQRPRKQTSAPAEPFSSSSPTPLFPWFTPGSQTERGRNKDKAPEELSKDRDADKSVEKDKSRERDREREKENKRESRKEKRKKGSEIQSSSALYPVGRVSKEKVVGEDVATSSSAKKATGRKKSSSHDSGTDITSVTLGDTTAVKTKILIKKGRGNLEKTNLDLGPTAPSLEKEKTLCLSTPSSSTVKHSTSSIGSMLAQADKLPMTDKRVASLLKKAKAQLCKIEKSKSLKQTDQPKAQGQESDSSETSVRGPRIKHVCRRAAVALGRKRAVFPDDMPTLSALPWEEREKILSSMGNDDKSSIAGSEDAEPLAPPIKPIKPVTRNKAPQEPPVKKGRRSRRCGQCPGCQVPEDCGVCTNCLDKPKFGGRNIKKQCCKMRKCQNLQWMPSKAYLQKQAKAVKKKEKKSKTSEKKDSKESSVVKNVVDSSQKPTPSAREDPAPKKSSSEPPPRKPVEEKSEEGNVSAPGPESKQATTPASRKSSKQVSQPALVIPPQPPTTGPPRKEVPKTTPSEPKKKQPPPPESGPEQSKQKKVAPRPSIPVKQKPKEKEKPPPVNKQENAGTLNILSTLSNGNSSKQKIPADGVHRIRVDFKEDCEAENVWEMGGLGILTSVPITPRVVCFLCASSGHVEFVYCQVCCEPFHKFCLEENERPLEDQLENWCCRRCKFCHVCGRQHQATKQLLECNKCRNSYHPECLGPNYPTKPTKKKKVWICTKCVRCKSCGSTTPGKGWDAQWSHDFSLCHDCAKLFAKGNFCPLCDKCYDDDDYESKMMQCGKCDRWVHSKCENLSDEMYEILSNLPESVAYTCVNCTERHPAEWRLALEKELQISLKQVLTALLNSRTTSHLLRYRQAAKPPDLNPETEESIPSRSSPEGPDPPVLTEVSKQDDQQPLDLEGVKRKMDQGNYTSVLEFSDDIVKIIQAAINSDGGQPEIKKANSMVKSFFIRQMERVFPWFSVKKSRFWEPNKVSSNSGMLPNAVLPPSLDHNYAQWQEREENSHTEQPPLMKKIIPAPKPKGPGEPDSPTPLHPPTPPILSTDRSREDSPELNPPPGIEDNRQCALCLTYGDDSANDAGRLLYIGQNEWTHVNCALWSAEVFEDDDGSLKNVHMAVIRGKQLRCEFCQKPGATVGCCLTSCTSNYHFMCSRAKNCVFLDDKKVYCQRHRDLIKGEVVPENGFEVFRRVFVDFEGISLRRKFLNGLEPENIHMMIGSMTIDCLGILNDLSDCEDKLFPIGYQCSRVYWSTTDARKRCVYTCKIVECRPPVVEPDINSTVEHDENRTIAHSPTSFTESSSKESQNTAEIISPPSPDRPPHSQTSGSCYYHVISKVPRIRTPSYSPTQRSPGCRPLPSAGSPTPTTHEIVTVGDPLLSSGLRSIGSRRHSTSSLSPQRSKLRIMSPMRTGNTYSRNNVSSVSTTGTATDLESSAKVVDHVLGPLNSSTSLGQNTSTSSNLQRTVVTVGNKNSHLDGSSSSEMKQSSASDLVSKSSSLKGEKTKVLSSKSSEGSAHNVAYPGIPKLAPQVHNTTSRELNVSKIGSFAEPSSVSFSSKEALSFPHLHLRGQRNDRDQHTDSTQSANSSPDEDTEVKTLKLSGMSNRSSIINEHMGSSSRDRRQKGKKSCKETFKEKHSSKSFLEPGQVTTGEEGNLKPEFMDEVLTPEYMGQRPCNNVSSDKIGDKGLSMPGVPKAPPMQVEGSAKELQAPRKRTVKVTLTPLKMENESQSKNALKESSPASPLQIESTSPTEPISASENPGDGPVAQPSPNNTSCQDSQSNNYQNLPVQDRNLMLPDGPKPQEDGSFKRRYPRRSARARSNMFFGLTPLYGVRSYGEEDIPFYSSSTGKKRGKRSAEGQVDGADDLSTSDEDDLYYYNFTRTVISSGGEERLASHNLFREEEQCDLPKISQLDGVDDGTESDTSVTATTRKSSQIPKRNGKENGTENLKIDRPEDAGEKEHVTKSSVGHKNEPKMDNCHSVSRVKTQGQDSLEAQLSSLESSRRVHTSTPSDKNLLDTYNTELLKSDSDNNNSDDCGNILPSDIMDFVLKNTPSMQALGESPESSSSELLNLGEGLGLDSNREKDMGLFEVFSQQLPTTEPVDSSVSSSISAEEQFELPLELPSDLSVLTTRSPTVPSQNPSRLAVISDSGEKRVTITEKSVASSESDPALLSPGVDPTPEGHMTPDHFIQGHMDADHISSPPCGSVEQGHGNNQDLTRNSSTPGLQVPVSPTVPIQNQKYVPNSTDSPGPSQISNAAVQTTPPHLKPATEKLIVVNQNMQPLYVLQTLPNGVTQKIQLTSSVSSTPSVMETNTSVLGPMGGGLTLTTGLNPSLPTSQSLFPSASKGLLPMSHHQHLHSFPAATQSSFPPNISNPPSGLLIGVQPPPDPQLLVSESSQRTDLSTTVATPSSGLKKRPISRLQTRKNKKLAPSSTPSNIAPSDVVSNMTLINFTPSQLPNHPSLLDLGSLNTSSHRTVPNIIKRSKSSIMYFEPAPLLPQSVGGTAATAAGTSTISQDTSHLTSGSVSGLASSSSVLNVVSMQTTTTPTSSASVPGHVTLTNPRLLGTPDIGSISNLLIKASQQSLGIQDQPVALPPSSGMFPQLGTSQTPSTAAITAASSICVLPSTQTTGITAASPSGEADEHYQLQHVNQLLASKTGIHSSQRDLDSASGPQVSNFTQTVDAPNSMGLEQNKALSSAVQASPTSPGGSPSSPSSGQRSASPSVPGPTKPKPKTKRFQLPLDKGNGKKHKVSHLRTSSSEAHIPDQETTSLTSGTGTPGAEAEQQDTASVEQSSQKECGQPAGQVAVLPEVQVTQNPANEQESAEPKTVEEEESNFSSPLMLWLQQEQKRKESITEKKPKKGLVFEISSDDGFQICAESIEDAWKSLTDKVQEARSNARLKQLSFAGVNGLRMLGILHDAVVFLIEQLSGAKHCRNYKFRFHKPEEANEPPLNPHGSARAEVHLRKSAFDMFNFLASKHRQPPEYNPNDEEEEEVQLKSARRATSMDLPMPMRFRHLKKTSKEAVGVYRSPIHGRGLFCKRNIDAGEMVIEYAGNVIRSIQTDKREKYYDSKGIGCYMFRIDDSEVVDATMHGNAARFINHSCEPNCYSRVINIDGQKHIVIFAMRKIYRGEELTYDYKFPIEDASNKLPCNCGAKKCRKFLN

SMILES | Potency | activity change, negative = inhibition
CCSc1nnc(NC(=O)CSc2nnc(Cc3cccn3C)n2-c2ccc(F)cc2)s1 | inconclusive: 79.4 µM [inhibitor, single point] | –
COc1cccc(CNC(=O)C2CCN(S(=O)(=O)c3ccccc3)CC2)c1 | inactive | –
Cc1ccc(S(=O)(=O)/N=C2/NC(=O)/C(=C\c3cc(Br)cc(Br)c3O)S2)cc1 | inconclusive: 3.55 µM [fluorescent, side channel, full curve] | –
COc1cccc(/C=N/NC(=O)c2ccc3nc[nH]c3c2)c1O | inactive | –
Cc1ccc(-n2ncc3c2CCCC3NC(=O)CSc2ccccn2)cc1C (configuration not stated) | inconclusive: 12.6 µM [fluorescent, side channel, partial curve] | –
O=C(Nc1ccc2c(c1)OCCO2)C1CC(c2ccccc2Cl)=NO1 (configuration not stated) | inconclusive: 15.8 µM [inhibitor, single point] | –
CN(C)C1=C(Cl)C(=O)N(c2ccc(Cl)c(Cl)c2)C1=O | inconclusive: 25.1 µM [inhibitor, partial curve] | –
Fc1ccccc1COc1ccc(Br)cc1CNCc1ccncc1 | inactive | –
COCCNC(=S)N/N=C(\C)CCc1ccc2c(c1)OCO2 | inactive | –
CCOC(=O)N1CCN(S(=O)(=O)c2ccc(C)cc2)C1 | inconclusive: 1 µM [inhibitor, full curve, poor fit] | –
Nc1ccccc1C(=O)NCc1ccc(F)cc1 | inactive | –
COc1nc(-c2ccccc2)ccc1-c1noc(-c2ccccc2)n1 | inactive | –
Cc1cc(NC(=O)CCCC(=O)N(c2ccccc2)C(C(=O)NC2CCCCC2)c2cccs2)no1 (configuration not stated) | inactive | –
CN(C)CCc1c[nH]c2ccc(CC3COC(=O)N3)cc12 (configuration not stated) | inconclusive: 50.1 µM [inhibitor, partial curve] | –
COc1ccc(OC)c(/C=N/NC(=O)c2ccncc2)c1 | inactive | –
CN=C(Nc1cccnc1)c1ccccc1 | inconclusive: 31.6 µM [inhibitor, single point] | –
COC(=O)c1ccccc1N1C(=O)C2C(C1=O)C1C=CC2C12CC2 (configuration not stated) | inconclusive: 7.08 µM [inhibitor, single point] | –
Cc1cc(N2CCN(S(=O)(=O)c3ccccc3)CC2)nc2c(C)cccc12 | inconclusive: 31.6 µM [fluorescent, side channel, single point] | –
S=C1NC2(CCCCCC2)N=C1c1ccccc1 | inconclusive: 10 µM [quencher, side channel, single point] | –
Cc1ccc(S(=O)(=O)N(CC(=O)N2CCc3ccccc3C2)c2ccc(Cl)c(Cl)c2)cc1 | inconclusive: 31.6 µM [fluorescent, side channel, single point] | –
CCC(C)(C)C1CCC2(CC1)NC(=O)N(CC(=O)N1CCN(S(=O)(=O)c3cc(C)ccc3C)CC1)C2=O (configuration not stated) | inconclusive: 15.8 µM [quencher, side channel, single point] | –
Cc1nnc(NC(=O)CSc2nnc(C)c(=O)n2N)s1 | inconclusive: 14.1 µM [fluorescent, side channel, single point] | –
COCCCNc1oc(/C=C/c2ccccc2)nc1C#N | inactive | –

SMILES | Potency | activity change, negative = inhibition
COc1ccccc1CN1CCNC(=O)C1CC(=O)NCCC1=CCCCC1 (configuration not stated) | inactive | –
Cc1cc(=O)[nH]c(N=N/C(=N/Nc2ccc(O)cc2)c2ccccc2)n1 | inconclusive: 89.1 µM [quencher, side channel, single point] | –
CCOC(=O)C1CCN(C(=O)C2CCN(C(=O)c3ccc([N+](=O)[O-])cc3)CC2)CC1 | inconclusive: 63.1 µM [fluorescent, side channel, single point] | –
COc1ccc(C2OC[C@H]3O[C@H](O)[C@H](NC(C)=O)[C@@H](O)[C@@H]3O2)cc1 (some centres not stated) | inconclusive: 12.6 µM [inhibitor, single point] | –
CNC(=S)NNC(=O)c1cccn(Cc2cccc(C(F)(F)F)c2)c1=O | inconclusive: 35.5 µM [fluorescent, side channel, single point] | –
COc1ccccc1CNC(=O)C1CCN(S(=O)(=O)c2cccc3nonc23)CC1 | inconclusive: 12.6 µM [fluorescent, side channel, single point] | –
Cc1cccc(NC(=O)/C(C#N)=C/c2cn(CC(=O)NCc3ccco3)c3ccccc23)c1C | inconclusive: 56.2 µM [fluorescent, side channel, partial curve] | –
CSC1=NCCN1C(=O)c1c(-c2ccccc2Cl)noc1C | inactive | –
COc1cc(C(=S)N2CCN(C(c3ccccc3)c3ccccc3)CC2)cc(OC)c1O | inactive | –
Clc1ccccc1-c1nnc2sc(-c3ccco3)nn12 | inconclusive: 14.1 µM [fluorescent, side channel, single point] | –
CCOc1ccc(Nc2ccc([N+](=O)[O-])c3nonc23)cc1 | inconclusive: 20 µM [quencher, side channel, partial curve] | –
COC(=O)c1cc(NC(=O)c2cccc(Cl)c2)c(=O)oc1/C=C/Nc1cc(C)cc(C)c1 | inconclusive: 0.891 µM [fluorescent, side channel, full curve] | –
Clc1ccc(-c2c[n+](Cc3ccc(Cl)c(Cl)c3)c3n2CCC3)cc1 | inactive | –
CC(=O)Nc1ccc2nc3ccccc3nc2c1 | inconclusive: 44.7 µM [inhibitor, single point] | –
CC(=O)c1cccc(NC(=S)NC(=O)c2ccc(Cl)cc2)c1 | inconclusive: 31.6 µM [fluorescent, side channel, single point] | –
Cc1cccc(NC(=O)c2cc([N+](=O)[O-])ccc2NC2CCCCC2)c1 | inconclusive: 10 µM [fluorescent, side channel, single point] | –
COc1ccc(CCNC(=O)C(=O)NCC2OCCN2S(=O)(=O)c2cccs2)cc1 (configuration not stated) | – | inconclusive: 19.8% [phenotype inactive]
O=[N+]([O-])c1cccc(-c2cn3ccccc3n2)c1 | inactive | –
CC(C)c1ccc(S(=O)(=O)N2CCN(CCC(=O)Nc3ccc(N(C)C)cc3)CC2)cc1 | inactive | –
O=C(NCCc1nnc2ccc(NCc3ccccc3Cl)nn12)c1ccccc1 | inconclusive: 8.91 µM [fluorescent, side channel, full curve] | –
CCOC(=O)c1c(CSC(=N)N)n(-c2ccc(C)cc2)c2cc(Br)c(OC(C)=O)cc12 | inconclusive: 5.62 µM [quencher, side channel, full curve] | –
C/C(=N\NC(=O)c1ccccc1O)C1C(=O)c2ccccc2C1=O | inconclusive: 7.08 µM [inhibitor, full curve] | –
CCN(CC)c1ccc(NC(=O)c2ccc3c(c2)OCO3)c(C)c1 | inactive | –

In another format: entries from further up
SMILES	Potency	activity change, negative = inhibition
Cc1cccc(NC(=O)c2cc([N+](=O)[O-])ccc2NC2CCCCC2)c1	inconclusive: 10 µM [fluorescent, side channel, single point]	–
COc1ccc(CCNC(=O)C(=O)NCC2OCCN2S(=O)(=O)c2cccs2)cc1 (configuration not stated)	–	inconclusive: 19.8% [phenotype inactive]
O=[N+]([O-])c1cccc(-c2cn3ccccc3n2)c1	inactive	–
CC(C)c1ccc(S(=O)(=O)N2CCN(CCC(=O)Nc3ccc(N(C)C)cc3)CC2)cc1	inactive	–

Following part

SMILES | Potency | activity change, negative = inhibition
O=C(NNC(=O)C1[C@H]2CCCC[C@@H]12)Nc1cccc2ccccc12 (some centres not stated) | inconclusive: 44.7 µM [inhibitor, single point] | –
CCCCn1c(=O)[nH]c2nc3cc(NC(C)=O)ccc3nc2c1=O | inactive | –
CCC(C)n1c(=N)c(C#N)cc2c(=O)n3cc(C)ccc3nc21 (configuration not stated) | inconclusive: 89.1 µM [fluorescent, side channel, single point] | –
COc1cc(/C=C2/S/C(=N/S(=O)(=O)Cc3ccccc3)NC2=O)c([N+](=O)[O-])cc1OC | inactive | –
CS/C(=N\S(=O)(=O)c1ccccc1)c1ccccc1 | inconclusive: 28.2 µM [fluorescent, side channel, partial curve] | –
Cc1cc(C)c2c(=O)n(CC(=O)N3CCC(Cc4ccccc4)CC3)sc2n1 | inactive | –
O=C(NCC1CCCN(Cc2nccs2)C1)c1cccc2ccccc12 (configuration not stated) | inactive | –
CC(=O)Nc1ccc2[nH]c3ccccc3c2c1 | inconclusive: 35.5 µM [inhibitor, single point] | –
COC(=O)c1ccccc1NC(=O)c1nc(S(=O)(=O)Cc2ccccc2)ncc1Cl | inconclusive: 28.2 µM [quencher, side channel, partial curve] | –
COC(=O)c1sc(NC(=O)CSc2nc3cccnc3n2C)nc1C | inconclusive: 70.8 µM [fluorescent, side channel, single point] | –
OCCN(CCO)c1ccc(C(c2ccc(Cl)cc2)c2ccc(N(CCO)CCO)cc2Cl)c(Cl)c1 | inconclusive: 89.1 µM [inhibitor, single point] | –
O=C(N/N=C/c1cc(Br)cc(Br)c1O)c1ccncc1 | inactive | –
O=C(NNS(=O)(=O)c1ccccc1)c1ccccc1-n1cccc1 | inconclusive: 15.8 µM [quencher, side channel, single point] | –
Nc1c(-c2cccs2)cnc2c(-c3ccc(F)cc3)cnn12 | inactive | –
CN1CCC(=O)N(CCOc2ccccc2)CC1 | inactive | –
Cc1c(-c2nc(N)nc(Nc3ccc(F)cc3)n2)oc2ccccc12 | inconclusive: 63.1 µM [quencher, side channel, single point] | –
COc1cccc(NCc2cc(=O)oc3cc(C)c(O)cc23)c1 | inconclusive: 11.2 µM [fluorescent, side channel, single point] | –
CCCN1CCCc2cc(CN)ccc21 | inconclusive: 89.1 µM [inhibitor, single point] | –
CC(=O)c1ccccc1OC(=O)COc1ccc([N+](=O)[O-])cc1 | inconclusive: 31.6 µM [inhibitor, partial curve] | –
COC(=O)CCC(=O)N1CCc2cc(S(=O)(=O)N3CCc4ccccc43)ccc21 | inactive | –
CCc1ccc(N(CC(=O)NCc2ccco2)C(=O)CCC(=O)Nc2ccccn2)cc1 | inactive | –

From PubChem BioAssay AID2662 (National Center for Advancing Translational Sciences (NCATS), 2010)
